PubChem BioAssay AID1159595 – NIAID, 2016
The deposit covers 756 reagents; shown is a part drawn at random. Of all reagents, 115 (15%) are marked active. 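Active calls cover both lowered and raised reporter signal; each score refers to one siRNA rather than a whole gene.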 A number with no mark means an inactive call. The numbers tell different reagents against one gene apart. The record does not give: the amount of reagent.

Purpose: 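Contribution of 126 core TLR signalling genes to the Pam3CSK4 inflammatory response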 (primary screen)
System: mouse RAW264.7 macrophage reporter cells
Reagent: single siRNA against mouse genes
Timing: assayed 48 to 72 hours after siRNA transfection; ligand applied for 16 hours
Conditions: Pam3CSK4 (TLR2 ligand) for 16 hours before fixation; dose not given
Read-out: 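Nuclear mCherry from a Tnf promoter reporter imaged after 16 h Pam3CSK4, 48–72 h post-transfection; background subtracted, plate median/MAD normalised, robust z-scores averaged over replicates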
Scale: Tnf reporter z-score (replicate mean): higher = stronger Tnf promoter reporter signal than negative control wells
Rule for the call: 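An siRNA is active when its replicate-mean z-score is -1.5 or lower or 1.5 or higher (activity score at least 50); activity graded at absolute z 1, 1.5, 2 and 2.5; calls apply to single siRNAs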
Calls: active = strong change (up or down); inactive = little change

Mapkapk2 #1 showed Tnf reporter z-score (replicate mean) = -2.33 (active). Knock-down of Mapkapk2 #2 gave: Tnf reporter z-score (replicate mean) = 0.891. Against Mapkapk2 #3, the values are Tnf reporter z-score (replicate mean) = -0.979. After knock-down of Mapkapk2 #4, the screen gave Tnf reporter z-score (replicate mean) = -1.43. Knock-down of Mapkapk2 #5 resulted in: Tnf reporter z-score (replicate mean) = 1.7 (active). After knock-down of Mapkapk2 #6 the results were Tnf reporter z-score (replicate mean) = -0.373.

Chuk #1 showed Tnf reporter z-score (replicate mean) = 0.695. Silencing of Chuk #2 came out at: Tnf reporter z-score (replicate mean) = -1.98 (active). Chuk #3 gave Tnf reporter z-score (replicate mean) = 0.66. Knock-down of Chuk #4 gave: Tnf reporter z-score (replicate mean) = -1.08. Against Chuk #5, the entry reads Tnf reporter z-score (replicate mean) = -0.175. Depletion of Chuk #6 resulted in: Tnf reporter z-score (replicate mean) = -0.188.

Depletion of Arf6 #1 came out at: Tnf reporter z-score (replicate mean) = -0.313. For Arf6 #2 the deposit lists Tnf reporter z-score (replicate mean) = 0.841. Arf6 #3 gave Tnf reporter z-score (replicate mean) = 0.0089. With knock-down of Arf6 #4, the record shows Tnf reporter z-score (replicate mean) = 0.394. Arf6 #5 gave Tnf reporter z-score (replicate mean) = 1.48. Arf6 #6 scored Tnf reporter z-score (replicate mean) = 0.883.

Depletion of Mapk12 #1 resulted in: Tnf reporter z-score (replicate mean) = -0.0719. With knock-down of Mapk12 #2 the results were Tnf reporter z-score (replicate mean) = -0.247. Against Mapk12 #3, the values are Tnf reporter z-score (replicate mean) = 0.169. For Mapk12 #4 the deposit lists Tnf reporter z-score (replicate mean) = 1.55 (active). Silencing of Mapk12 #5 resulted in: Tnf reporter z-score (replicate mean) = -0.532. Mapk12 #6 showed Tnf reporter z-score (replicate mean) = -1.65 (active).

Copied from the listing, 4 entries:
Mapk12 #3 → Tnf reporter z-score (replicate mean) = 0.169
Mapk12 #4 → Tnf reporter z-score (replicate mean) = 1.55 (active)
Mapk12 #5 → Tnf reporter z-score (replicate mean) = -0.532
Mapk12 #6 → Tnf reporter z-score (replicate mean) = -1.65 (active)
